Laboratory results published in paper doi:10.1101/2022.09.26.509508.
These are yes or no findings as the source states them, for the method shown. Some entries that bind do so weakly or less than the wild type. Where a sequence is shown, tags or fusion partners need not be part of it. Blank lines part the entries; values can stand above or below the binder they belong to.

How the values were obtained:
Test in all cases: two-hybrid
[1] = target: T1, LIN-42b (LIN-42^Period isoform, two-hybrid bait) (C. elegans) (UniProt Q65ZG8)
T1 sequence: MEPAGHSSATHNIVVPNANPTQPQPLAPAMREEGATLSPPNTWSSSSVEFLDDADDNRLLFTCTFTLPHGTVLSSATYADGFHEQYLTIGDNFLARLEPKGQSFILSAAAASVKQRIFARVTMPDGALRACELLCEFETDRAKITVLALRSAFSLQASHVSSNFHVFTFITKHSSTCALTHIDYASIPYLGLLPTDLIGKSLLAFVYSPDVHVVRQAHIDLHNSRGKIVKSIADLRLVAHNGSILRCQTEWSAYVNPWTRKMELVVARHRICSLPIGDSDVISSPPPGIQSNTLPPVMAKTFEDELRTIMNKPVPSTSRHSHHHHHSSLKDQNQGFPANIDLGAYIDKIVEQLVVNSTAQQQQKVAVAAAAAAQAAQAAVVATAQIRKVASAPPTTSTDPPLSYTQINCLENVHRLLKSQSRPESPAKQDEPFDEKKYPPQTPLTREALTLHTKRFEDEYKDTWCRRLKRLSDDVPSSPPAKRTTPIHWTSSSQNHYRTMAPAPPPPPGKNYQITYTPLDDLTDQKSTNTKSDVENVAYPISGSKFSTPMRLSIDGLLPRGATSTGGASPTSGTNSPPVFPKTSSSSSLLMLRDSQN

[2] = target: T2, NHR-23^ROR (two-hybrid fusion) (C. elegans) (UniProt P41828)
T2 sequence: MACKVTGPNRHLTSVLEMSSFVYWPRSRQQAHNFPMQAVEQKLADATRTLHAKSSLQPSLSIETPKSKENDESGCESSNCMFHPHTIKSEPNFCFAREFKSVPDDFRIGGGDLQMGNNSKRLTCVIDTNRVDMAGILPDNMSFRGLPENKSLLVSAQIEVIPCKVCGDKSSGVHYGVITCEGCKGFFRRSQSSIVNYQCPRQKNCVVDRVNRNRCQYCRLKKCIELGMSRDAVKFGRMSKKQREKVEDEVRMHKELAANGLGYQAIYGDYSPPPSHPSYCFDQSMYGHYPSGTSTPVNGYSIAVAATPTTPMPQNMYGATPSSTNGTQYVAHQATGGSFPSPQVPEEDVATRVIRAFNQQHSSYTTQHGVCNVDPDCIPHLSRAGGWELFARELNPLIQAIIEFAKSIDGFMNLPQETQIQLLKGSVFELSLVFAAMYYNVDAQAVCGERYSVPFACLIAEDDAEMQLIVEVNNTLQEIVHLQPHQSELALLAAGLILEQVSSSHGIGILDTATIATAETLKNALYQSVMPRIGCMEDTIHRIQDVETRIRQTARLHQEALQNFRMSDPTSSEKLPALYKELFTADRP

[3] = target: T3, LIN-42b (LIN-42^Period isoform, two-hybrid bait) (C. elegans), Q65ZG8; settings: remark: other sources report otherwise
T3 chain: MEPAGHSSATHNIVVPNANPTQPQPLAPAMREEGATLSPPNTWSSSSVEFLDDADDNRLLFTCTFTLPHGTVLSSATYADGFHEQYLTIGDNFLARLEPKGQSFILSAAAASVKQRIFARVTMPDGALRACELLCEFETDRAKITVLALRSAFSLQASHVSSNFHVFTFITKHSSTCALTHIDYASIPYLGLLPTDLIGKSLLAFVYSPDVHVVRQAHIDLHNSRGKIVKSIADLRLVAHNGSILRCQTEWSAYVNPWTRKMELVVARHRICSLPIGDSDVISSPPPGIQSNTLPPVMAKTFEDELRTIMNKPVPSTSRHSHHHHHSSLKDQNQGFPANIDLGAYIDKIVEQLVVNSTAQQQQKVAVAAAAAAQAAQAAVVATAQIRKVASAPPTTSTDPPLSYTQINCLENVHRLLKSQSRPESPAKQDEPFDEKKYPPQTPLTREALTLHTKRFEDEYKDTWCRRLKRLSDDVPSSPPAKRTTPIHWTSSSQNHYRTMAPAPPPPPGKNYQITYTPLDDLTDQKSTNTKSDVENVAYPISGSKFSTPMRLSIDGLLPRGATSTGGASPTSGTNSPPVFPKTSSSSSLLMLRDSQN

- binding [1]: no binding
B1: NHR-23^ROR (two-hybrid fusion) (protein, UniProt P41828 1-588)
chain: MACKVTGPNRHLTSVLEMSSFVYWPRSRQQAHNFPMQAVEQKLADATRTLHAKSSLQPSLSIETPKSKENDESGCESSNCMFHPHTIKSEPNFCFAREFKSVPDDFRIGGGDLQMGNNSKRLTCVIDTNRVDMAGILPDNMSFRGLPENKSLLVSAQIEVIPCKVCGDKSSGVHYGVITCEGCKGFFRRSQSSIVNYQCPRQKNCVVDRVNRNRCQYCRLKKCIELGMSRDAVKFGRMSKKQREKVEDEVRMHKELAANGLGYQAIYGDYSPPPSHPSYCFDQSMYGHYPSGTSTPVNGYSIAVAATPTTPMPQNMYGATPSSTNGTQYVAHQATGGSFPSPQVPEEDVATRVIRAFNQQHSSYTTQHGVCNVDPDCIPHLSRAGGWELFARELNPLIQAIIEFAKSIDGFMNLPQETQIQLLKGSVFELSLVFAAMYYNVDAQAVCGERYSVPFACLIAEDDAEMQLIVEVNNTLQEIVHLQPHQSELALLAAGLILEQVSSSHGIGILDTATIATAETLKNALYQSVMPRIGCMEDTIHRIQDVETRIRQTARLHQEALQNFRMSDPTSSEKLPALYKELFTADRP

- binding [2]: binds
B2: NHR-85^Rev-Erb (two-hybrid fusion) (protein, UniProt Q9XUK7 1-514)
chain: MDLSTSGSLPCHLPLSLLTNLQTPPIDTSFSSPPATSSSSLLSPSPSSAFRPVVPKSLMNPQPAMDTFYMSAIQSLVVSTTNDDQYSEHGALEGSKSLAKDENASTSAGTILCQVCSDKASGFHYGVFACEGCKGFFRRSIQQKITYRACTRAEDCLILRNNRNRCQCCRLKKCLAVGMSRDAVRFGRVPKREKARMFEEMQKTNVQSQRDQIAIQYENLTEVMHKINQAFGTLQATLEKCTGPIYTDRCPITSNFIVIPLKAAIDFANSIPAFLSITQTQRVHLLQNSVFDVMLLASASASTSQHFPPGGLTYDQSSANPIIPQAIQSISARIRQLPPQTVPILTAIAVCQADLLPESQQPMLLAERLWCVLGKLGGIQSLATAPSLLADVRTLRQWHSDRLRQMSQISQHFSQNLLIAPVAAAAPVLLPPAFLSPPASATSTSSSSVKSEFIERHPSIASLLERPRRISSSGAQEPLNLSLPHVRHQVKRDVDSDEQLEEMKVSPVPTTLSE

- binding [3]: binds
B3: NHR-85^Rev-Erb (two-hybrid fusion), Q9XUK7 1-514 (protein)
chain: MDLSTSGSLPCHLPLSLLTNLQTPPIDTSFSSPPATSSSSLLSPSPSSAFRPVVPKSLMNPQPAMDTFYMSAIQSLVVSTTNDDQYSEHGALEGSKSLAKDENASTSAGTILCQVCSDKASGFHYGVFACEGCKGFFRRSIQQKITYRACTRAEDCLILRNNRNRCQCCRLKKCLAVGMSRDAVRFGRVPKREKARMFEEMQKTNVQSQRDQIAIQYENLTEVMHKINQAFGTLQATLEKCTGPIYTDRCPITSNFIVIPLKAAIDFANSIPAFLSITQTQRVHLLQNSVFDVMLLASASASTSQHFPPGGLTYDQSSANPIIPQAIQSISARIRQLPPQTVPILTAIAVCQADLLPESQQPMLLAERLWCVLGKLGGIQSLATAPSLLADVRTLRQWHSDRLRQMSQISQHFSQNLLIAPVAAAAPVLLPPAFLSPPASATSTSSSSVKSEFIERHPSIASLLERPRRISSSGAQEPLNLSLPHVRHQVKRDVDSDEQLEEMKVSPVPTTLSE
